Assay results published in US20240358885A1, “COMPOSITIONS FOR EMBOLIZATION” (IBERHOSPITEX, S.A., priority 2021, published 2024).
Some of these results come from one statement about several compounds together. At least one structure is not confirmed: it was looked up by name or label, or the drawing left a doubt.

Assay: Radiopacity loss and homogeneity of precipitates incubated in PBS at 37° C.
Assay type: physicochemical
Settings: after 30 minutes in PBS
Procedure: The resulting solutions were assayed to assess the precipitation behavior and the radiopacity loss.
Radiopacity loss of precipitates was determined by comparing the radiopacity of freshly prepared samples (time=0) and samples incubated for 30 days in phosphate buffered saline (PBS) at 37° C. PBS was changed daily when possible. Radiopacity was determined using a C-arm X-ray equipment (OEC Fluorostar 7900COMPACT2, General Electric). Radiopacity loss was scored as radiostable (score =0) when the radiopacity loss was below 5%, slightly radiolabile when the radiopacity loss was comprised between 5 to 25% radiopacity loss (score=1), moderately radiolabile when the radiopacity loss was comprised between 26 to 69% radiopacity loss (score=2) and highly radiolabile when the radiopacity loss was comprised between 70to 100% radiopacity loss (score=3). Homogeneity of the radiopacity was also scored as non-homegeneous (score=0) or homogeneous (score=1).
The procedure was as defined above. It can be observed that formulations with high logP values, i.e. above 7.0, are radiostable, while formulations with low logP values, i.e. below 2.0 (logP (LFE13)=−1.6 and logP (LFE23) at pH 7.4=−0.5) lose their radiopacity within minutes.

Row | Structure (SMILES) | loss of radiopacity compared to time zero
1 | CN(C(=O)CO)c1c(I)c(C(=O)NCC(O)CO)c(I)c(C(=O)NCC(O)CO)c1I (centres unmarked) [LFE13, iomeprol, reference compound] | more than 50%
2 | CC(=O)Nc1c(I)c(NC(C)=O)c(I)c(C(=O)O)c1I [LFE23, Diatrizoic acid, reference compound] | more than 50%
